About 620 (0.19%) of roughly 320,000 compounds were called active. Inconclusive results, whose numbers are uncertain, are shown with a selection of clear calls. Rule as the data show it: active = activation above about 80%; inconclusive = between about 30% and that limit; inactive = weaker than that.
Molecular target: Transient receptor potential cation channel subfamily V member 1 (Homo sapiens) (UniProt Q8NER1)
Assay: HTS Assay for Compounds that Act as Agonists of the Vanilloid Receptor 1; also: 0% is about no effect
Conditions: TRPV1-expressing cells, Fluo-8 calcium influx, agonist mode; at 8.33 µM, stronger effect = higher value
In short: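 Cells expressing TRPV1 were dye-loaded with Fluo-8 and read kinetically: 10 s baseline, 3 min after compound (agonist portion), then 2 min after EC20 capsaicin (allosteric enhancer portion). Calcium-bound dye fluorescence at 480/520 nm.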

By UniProt entry, the sequences of proteins in these tests, tags left out.
UniProt Q8NER1, whole entry, looked up: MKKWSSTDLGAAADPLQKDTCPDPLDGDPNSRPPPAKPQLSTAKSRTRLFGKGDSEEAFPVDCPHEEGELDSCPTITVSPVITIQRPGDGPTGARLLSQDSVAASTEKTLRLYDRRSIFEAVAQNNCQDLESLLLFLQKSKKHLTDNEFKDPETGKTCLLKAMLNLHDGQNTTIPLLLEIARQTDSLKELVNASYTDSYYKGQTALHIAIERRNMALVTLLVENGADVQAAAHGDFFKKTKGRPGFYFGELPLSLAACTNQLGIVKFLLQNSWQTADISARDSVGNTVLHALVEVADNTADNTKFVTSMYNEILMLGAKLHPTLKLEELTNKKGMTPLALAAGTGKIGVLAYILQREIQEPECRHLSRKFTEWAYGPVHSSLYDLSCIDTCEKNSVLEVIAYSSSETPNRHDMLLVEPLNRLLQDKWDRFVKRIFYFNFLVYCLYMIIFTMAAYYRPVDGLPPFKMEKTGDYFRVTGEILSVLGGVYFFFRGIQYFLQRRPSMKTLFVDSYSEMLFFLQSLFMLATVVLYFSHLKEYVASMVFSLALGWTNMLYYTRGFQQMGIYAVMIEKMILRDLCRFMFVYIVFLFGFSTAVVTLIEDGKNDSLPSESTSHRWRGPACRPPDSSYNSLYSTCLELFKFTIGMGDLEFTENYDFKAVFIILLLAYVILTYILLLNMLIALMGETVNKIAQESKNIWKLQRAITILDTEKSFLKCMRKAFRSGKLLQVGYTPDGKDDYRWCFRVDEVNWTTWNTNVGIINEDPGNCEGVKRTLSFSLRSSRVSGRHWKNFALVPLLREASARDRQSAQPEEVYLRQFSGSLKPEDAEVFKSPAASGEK

| SMILES | activation |
| --- | --- |
| Cc1sc2ncnc(Nc3ccccc3)c2c1C | inconclusive: 46.4% |
| CC1(C)N=C(SCC(=O)Nc2ccccc2)C(c2ccc(Cl)cc2)=N1 | inconclusive: 45.4% |
| OCC1CCCN(C(=S)Nc2ccc(Oc3ccccc3)cc2)C1 (stereo not given) | inconclusive: 53.2% |
| N#C/C(C(=O)Nc1ccc(Cl)cc1)=C(/S)Nc1ccccc1 | inactive: 0.286% |
| CC(C)c1ccc(NC2CCCN(C(=O)CCN3CCCCC3=O)C2)cc1 (stereo not given) | inconclusive: 45.7% |
| CC(C)COc1ccc(C(=O)N/N=C/c2ccoc2)cc1 | inconclusive: 55.6% |
| CCCCCCCC1c2c(c(C)c(C)oc2=O)Oc2c(C)c(C)oc(=O)c21 | inconclusive: 47.4% |
| C=C(C)COc1ccc(-c2ncncc2-c2ccccc2OC)c(O)c1 | inconclusive: 33.1% |
| Cc1cc2cc(C(c3nnnn3Cc3ccco3)N3CCc4ccccc43)c(=O)[nH]c2cc1C (stereo not given) | inactive: -2.25% |
| COc1ccccc1NC(=O)Nc1ccnn1Cc1cccs1 | inactive: 1.07% |
| O=C(N/N=C/c1ccco1)c1cc2ccccc2o1 | inconclusive: 40.4% |
| COC(=O)C1=C(N)Oc2cc(N(C)C)ccc2C1c1ccccc1OC (stereo not given) | inconclusive: 35.2% |
| Cc1ccc(C(=O)Nc2cccc(O)c2)cc1S(=O)(=O)N1CCCCCC1 | inconclusive: 50.4% |
| COc1ccc(C(=O)NC(=S)N2CCOCC2)cc1Br | inactive: -3.89% |
| CCCCN(CCCNc1ncnc2nc[nH]c12)c1ccccc1 | inconclusive: 73.5% |
| Oc1[nH]c2ccccc2c1N=NC(=S)NCCc1ccccc1 | inconclusive: 44.9% |
| COc1ccc(C(C)(C)C)cc1NC(=O)COC(=O)C(C)C | inconclusive: 31.4% |
| CN(C)S(=O)(=O)c1ccc(Cl)c(NC(=O)CN2C(=O)NC(C)(C3CC3)C2=O)c1 (stereo not given) | inactive: -4.08% |
| CN(c1ccc(C(=O)Nc2ccc3c(c2)OCO3)cc1)S(C)(=O)=O | inconclusive: 48% |
| CCCS(=O)(=O)N1CCCC(C(=O)NCCCN(CC)c2cccc(C)c2)C1 (stereo not given) | inconclusive: 45.7% |
| NS(=O)(=O)c1ccc(C(=O)Nc2ccc(-c3nc4cccnc4s3)cc2)cc1 | inactive: -2.82% |
| Cc1ccc(S(=O)(=O)N(CC(=O)N2CCCCC2)c2cccc(C)c2)cc1 | inconclusive: 47.6% |
| O=c1cc(N2CCCCC2)c(-c2ccccc2)nn1Cc1cccc(Cl)c1 | inconclusive: 68% |

| SMILES | activation |
| --- | --- |
| CN(CC(=O)Nc1ccc(N2CCOCC2)cc1)C(=O)CSc1ccc(Br)cc1 | inactive: -3.5% |
| O=C(Nc1ccc(OCC(F)(F)C(F)F)cc1)c1ccncc1 | inconclusive: 38.6% |
| NC(=O)c1nsc(C(=O)N(Cc2cccnc2)C(C(=O)NCc2ccc(F)cc2)c2ccc(F)cc2)c1N (stereo not given) | inconclusive: 34.2% |
| Cc1cc(Nc2ccc(C(C)C)cc2)n2ncnc2n1 | inconclusive: 59.7% |
| O=C(Nc1ccc2oc(-c3ccccc3F)nc2c1)c1ccc([N+](=O)[O-])o1 | inactive: -0.351% |
| CCc1ccc(NC(=O)c2ccccc2SC)cc1 | inactive: 23.5% |
| CN(C)/C=N/c1nc2nccc(-c3cccc(Cl)c3)n2n1 | inconclusive: 54.5% |
| C=CCn1c(=O)n(C(=O)OCC)c2cc(Br)ccc21 | inconclusive: 31.1% |
| COc1ccc(C(=O)N2CCc3[nH]nc(-c4ccccc4)c3C2)cc1 | inactive: 0.182% |
| CSc1ccc(NC(=O)Nc2ccccc2C(N)=O)cc1 | inconclusive: 46.7% |
| Cc1cc(OC(=O)c2ccccc2)c([N+](=O)[O-])c(=O)[nH]1 | inconclusive: 42.2% |
| Cc1nc(N2CCN(C(=O)c3cccs3)CC2)c2c3c(sc2n1)CCCC3 | inconclusive: 33.9% |
| CCOc1ccc(NCc2cccn2-c2nnc(N3CCC(C(=O)NCCCN4CCCCC4C)CC3)s2)cc1 (stereo not given) | inactive: 2.31% |
| Cc1cc(Cl)ccc1C(=O)C1CCCN(C(=O)c2nonc2C)C1 (stereo not given) | inconclusive: 37.6% |
| COC(=O)CSc1nnc2n(C3CCCCC3)c(=O)c3c4c(sc3n12)CCCC4 | inconclusive: 33.5% |
| COc1ccc(S(=O)(=O)N(C)C2CCN(C)CC2)cc1 | inactive: 3.38% |
| Cc1ccc(-n2ncc3c2CCCC3NC(=O)CCc2c(C)noc2C)cc1C (stereo not given) | inconclusive: 46.6% |
| N#CC(C#N)=C(N)/C(C#N)=C/c1cc(O)c(O)c(O)c1 | inactive: 3.96% |
| CCn1c2ccccc2c2cc(NC(=O)N3CCOCC3)ccc21 | inconclusive: 61.3% |
| O=C(CN(c1cc(Cl)ccc1Cl)S(=O)(=O)c1ccccc1)N1CCOCC1 | inconclusive: 33.8% |
| Clc1cccc(CNCCCSc2ncccn2)c1Cl | inactive: 0.258% |
| Cc1c(Cl)cccc1NC(CC(=O)c1ccccc1)C(=O)OCC(=O)c1cccs1 (stereo not given) | inactive: 7.98% |

8 of the compounds above, comma-delimited:
SMILES,activation
CCCCN(CCCNc1ncnc2nc[nH]c12)c1ccccc1,inconclusive: 73.5%
Oc1[nH]c2ccccc2c1N=NC(=S)NCCc1ccccc1,inconclusive: 44.9%
COc1ccc(C(C)(C)C)cc1NC(=O)COC(=O)C(C)C,inconclusive: 31.4%
CN(C)S(=O)(=O)c1ccc(Cl)c(NC(=O)CN2C(=O)NC(C)(C3CC3)C2=O)c1 (stereo not given),inactive: -4.08%
CN(c1ccc(C(=O)Nc2ccc3c(c2)OCO3)cc1)S(C)(=O)=O,inconclusive: 48%
CCCS(=O)(=O)N1CCCC(C(=O)NCCCN(CC)c2cccc(C)c2)C1 (stereo not given),inconclusive: 45.7%
NS(=O)(=O)c1ccc(C(=O)Nc2ccc(-c3nc4cccnc4s3)cc2)cc1,inactive: -2.82%
Cc1ccc(S(=O)(=O)N(CC(=O)N2CCCCC2)c2cccc(C)c2)cc1,inconclusive: 47.6%

Source: PubChem BioAssay AID540275 (National Center for Advancing Translational Sciences (NCATS), 2011)
